This note sets out measurements from paper PMC7819943, “Rice protein-binding microarrays: a tool to detect cis-acting elements near promoter regions in rice”.

Sequences of proteins named here, by UniProt entry; tags and fusion partners are left off.
UniProt Q0JBA9, entry or part of it: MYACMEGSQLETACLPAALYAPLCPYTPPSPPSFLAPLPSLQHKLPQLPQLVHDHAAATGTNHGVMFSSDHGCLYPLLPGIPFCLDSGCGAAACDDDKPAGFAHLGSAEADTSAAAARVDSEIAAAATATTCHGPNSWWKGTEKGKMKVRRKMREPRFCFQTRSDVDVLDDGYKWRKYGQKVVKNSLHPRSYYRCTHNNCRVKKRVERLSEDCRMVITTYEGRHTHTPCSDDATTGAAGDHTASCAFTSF

The list shows a part of the results.

For the test, the target named is OsWRKY34 (Oryza sativa, UniProt Q0JBA9 1-250). Put plainly: protein-binding microarray (RPBM); PBS, 2% BSA, 51.3 ng/ul salmon testes DNA, 50 uM zinc acetate, 200 nM TF, 25 C, 1 h; high values mean tight binding. The conditions noted are these: protein: recombinant; tags: N-terminal polyhistidine and DsRed monomer fusion (pET32a); label: CyDye5-dUTP incorporated in the synthesized complementary strand; 3' TTTTT single-stranded linker to array surface; dsDNA, one strand shown. In outline: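 Ni–NTA purification followed expression in E. coli BL21-CodonPlus of transcription factors fused N-terminally to a polyhistidine tag and DsRed. At 200 nM in PBS with 2% BSA, salmon testes DNA and 50 µM zinc acetate, the protein was incubated for 1 h at 25 °C with a custom Agilent array that had been primer-extended with Cy5-dUTP and blocked with 2% BSA. After washing, the array was read on an Axon 4000B scanner. The binding signal is per-feature fluorescence intensity in arbitrary units.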
For the sequence “CTCCTCTATCCGAGCAACGACGCCGCCGACTTTTCCAGACCGGAGTCACCTAGTGCAG”, the binding signal is 10600 fluorescence intensity (a.u.).

In the case of “TCACCACTAATATTTCTCGTGATACGGTTTGGCTTATTTTCGGAGTCACCTAGTGCAG”, the binding signal was 11500 fluorescence intensity (a.u.). As to “AGAAGCAGTGCTGTCTCCCAGCCTCACGCGTCCTCTTTTTCGGAGTCACCTAGTGCAG”, the binding signal was 8930 fluorescence intensity (a.u.). Then “CCTTTCTTCTTCCGCCTCTCCTCCATGGCGTGACCTGACTCGGAGTCACCTAGTGCAG”, with 9000 fluorescence intensity (a.u.); and “CTTCGATTGGTTTGTTGGTTTGACTGGAATTCGGATGGATCGGAGTCACCTAGTGCAG”, with 10100 fluorescence intensity (a.u.); and “TGTTCTCTACTCCTATGGCCAATTAATCATCAATCTCTCACGGAGTCACCTAGTGCAG”, with 10900 fluorescence intensity (a.u.).

Turning to “CTGCACATGATTTCAATCTACTATGGACATTCTCACTCTCCGGAGTCACCTAGTGCAG”, the binding signal is 12100 fluorescence intensity (a.u.). Then “GTCGAAACCGCAAAACCGCCTCTCTCTCTCTCTCTCTCTCCGGAGTCACCTAGTGCAG”, with 8720 fluorescence intensity (a.u.); and “TTGTTGCGCAGTGCCTGCCCCTGCCACGCCGCGTAGGACTCGGAGTCACCTAGTGCAG”, with 8660 fluorescence intensity (a.u.). Then “CGTGCCTCTCCTCCTCCGCCGCCCAACATCACTGGCGTCGCGGAGTCACCTAGTGCAG”, with 8430 fluorescence intensity (a.u.); and “GACACCTACTAGTTTAGCCATCTGCTGGTCTCGATCTCCTCGGAGTCACCTAGTGCAG”, with 9730 fluorescence intensity (a.u.). Then “CTTCATACCACATCTCCTCCAGTTCTCTCTCCTCCTCCGTCGGAGTCACCTAGTGCAG”, with 8720 fluorescence intensity (a.u.); and “TAGTTATTCTAGGGGAGGGGTGTAGAATAGATTCACTATACGGAGTCACCTAGTGCAG”, with 9720 fluorescence intensity (a.u.). In the case of “CTGCCTGCAGCTCACCACACTCCACCAGTTGTCCAGTTCACGGAGTCACCTAGTGCAG”, the binding signal was 10300 fluorescence intensity (a.u.). As for “TCCAATCCTGTCAGCTATTTCTCAGTGTCACGGTATTTCGCGGAGTCACCTAGTGCAG”, the binding signal is 12200 fluorescence intensity (a.u.). Then “GGTAGGCTCCATCCGCGTAGGCATATGATTCTTGGATGATCGGAGTCACCTAGTGCAG”, with 8870 fluorescence intensity (a.u.); and “GCGGGTCGGGGCAGGCGAAGCGGTCAAAACGTACTTAAAACGGAGTCACCTAGTGCAG”, with 8090 fluorescence intensity (a.u.); and “TTTTGTTCATTGTTTCTCGGTAAAATTTCTGCAATTTTGTCGGAGTCACCTAGTGCAG”, with 10600 fluorescence intensity (a.u.). With “GCTCCACCGCCGTCGTCTCCGCCTTCTTCCTCGCCTGCGGCGGAGTCACCTAGTGCAG”, the binding signal is 11100 fluorescence intensity (a.u.).

For “CCTGATACAAATTTTGACAATTTGACTTTTTGCAAAAACTCGGAGTCACCTAGTGCAG”, the binding signal is 8900 fluorescence intensity (a.u.). For the sequence “CCCTTCGCTGTCTCTCACGCCGCCACCCTTCCCAGTCTTCCGGAGTCACCTAGTGCAG”, the binding signal was 8570 fluorescence intensity (a.u.). Then “GTTGGTCTGACCATATTCTTTATTTTTATTGTTTTGTACACGGAGTCACCTAGTGCAG”, with 12700 fluorescence intensity (a.u.); and “TTCTCCTTATTGTTGTTGTCGTCCTTCTTCTTCTCCAGTCCGGAGTCACCTAGTGCAG”, with 8730 fluorescence intensity (a.u.). Take “TGTTGCGCTATTCTTTGCTTCGGTGGTACGTTGCCGACCACGGAGTCACCTAGTGCAG”: the binding signal is 10400 fluorescence intensity (a.u.).

With “GTCTTTTCGGTTCGATCTTATTTTACCCACCCCTACTCGACGGAGTCACCTAGTGCAG”, the binding signal is 10300 fluorescence intensity (a.u.).

Turning to “GAAGTAGGTGCTACACTCATTTTGCACTTTTGCGGTTCAACGGAGTCACCTAGTGCAG”, the binding signal was 8310 fluorescence intensity (a.u.). Then “CCATCGGCTGCACCTCTCTGCGCCTAGCCGGTCTCCGACCCGGAGTCACCTAGTGCAG”, with 8050 fluorescence intensity (a.u.); and “CCATCCACGCGACGCGGCACAACCTCCCGCGCCCAACACACGGAGTCACCTAGTGCAG”, with 8760 fluorescence intensity (a.u.); and “TCATCGTTGCTCAGTTAACCTTTGGTAGCTTCTTCTATTGCGGAGTCACCTAGTGCAG”, with 8790 fluorescence intensity (a.u.). As to “TCCGAGCCGCTCGTTCCATTTCCATTCCTACGCCGAGGTCCGGAGTCACCTAGTGCAG”, the binding signal is 11000 fluorescence intensity (a.u.).

For the sequence “TCTTCAAGCCTGCAACAACCGCATCTACTTCCCACGTCATCGGAGTCACCTAGTGCAG”, the binding signal is 12000 fluorescence intensity (a.u.). As to “ATAATACAGATTTCTTTTCTTCTAATTAGTAGTATTATTACGGAGTCACCTAGTGCAG”, the binding signal was 8310 fluorescence intensity (a.u.). For “ATGTCGGCCGTGTCGTCAGCTTGTCGCATATGCCAGATGCCGGAGTCACCTAGTGCAG”, the binding signal is 8030 fluorescence intensity (a.u.). Then “ATAATCATTCTTCTTCACCTACTTTCTCTTTTTAACCAATCGGAGTCACCTAGTGCAG”, with 10100 fluorescence intensity (a.u.); and “GCAGTATTTGTCACTTTTCCTGACCGACCACTTGCGTTTGCGGAGTCACCTAGTGCAG”, with 10100 fluorescence intensity (a.u.). Then “ATTCGATTTTCTTGCACCTAAACACATGCAACCCATCATTCGGAGTCACCTAGTGCAG”, with 10100 fluorescence intensity (a.u.); and “GAACTCCCGCTTCTATCATCTCTTTCAAATTGATGTTCCACGGAGTCACCTAGTGCAG”, with 10800 fluorescence intensity (a.u.); and “CATGCGACAGCCTGTTTTGACTGCCTTTTGTTTTATATTGCGGAGTCACCTAGTGCAG”, with 12000 fluorescence intensity (a.u.). In the case of “TGTGTGCGTGTGTTCCTCCTGTCAGTCACTTGCAAGCTGCCGGAGTCACCTAGTGCAG”, the binding signal was 8120 fluorescence intensity (a.u.). Then “GTTAATGTTTCTGGCTGCTGTCCTTCCGGCGACCCACCACCGGAGTCACCTAGTGCAG”, with 9200 fluorescence intensity (a.u.); and “GCTCGCACTTTTTCTATTCTATAATCTACGCTATCTGTTCCGGAGTCACCTAGTGCAG”, with 8590 fluorescence intensity (a.u.); and “CCCGACCTCGTCTTCAGCTCCGATCGCTCGCCGCGGCAGACGGAGTCACCTAGTGCAG”, with 8590 fluorescence intensity (a.u.). For “TTTCGATCCGTTGTCCTCAATAAACCAACTTTTGTATTTTCGGAGTCACCTAGTGCAG”, the binding signal was 10800 fluorescence intensity (a.u.). Then “CCGCTCGCTCGCCGCCGCCGCCGCGTCGTCGTCGTCTCCGCGGAGTCACCTAGTGCAG”, with 8950 fluorescence intensity (a.u.). Then “GGAAGCGGGCGCGGGCGGGGCAGGGGCAGCAGGCGGCGGTCGGAGTCACCTAGTGCAG”, with 8280 fluorescence intensity (a.u.); and “TTGTTTGCAACGTTTGACCGCTCATCTTATTCAATTTTTTCGGAGTCACCTAGTGCAG”, with 9070 fluorescence intensity (a.u.).

“TACGGGGCGGCTGATGCTTCTACTCCATATTAACTATTCCCGGAGTCACCTAGTGCAG”: the binding signal is 10200 fluorescence intensity (a.u.). With “CTGCTGCATTTACACGCCATTTTTTTTCCGCTCTTCTTTTCGGAGTCACCTAGTGCAG”, the binding signal was 12800 fluorescence intensity (a.u.). On to “CATCCTTTTTTCTAGTCCACAAACGCTAGCTTCGCCCGCCCGGAGTCACCTAGTGCAG”, for which the binding signal is 9950 fluorescence intensity (a.u.). Then “TCCAACCTCTTAGTTTCCTGCTTGGTTTTGATCGATTCAACGGAGTCACCTAGTGCAG”, with 9880 fluorescence intensity (a.u.); and “GGCTTCAGTTTTCTCTGCCCACCGATGATCGGTCCATCCGCGGAGTCACCTAGTGCAG”, with 8830 fluorescence intensity (a.u.); and “TGCCACGTCATCACCCTTTATTTACCATCTTCTCTCCCTTCGGAGTCACCTAGTGCAG”, with 11000 fluorescence intensity (a.u.).

As for “TGCAGTCGTAAGCCCTCATATTACGTTTATCAGCCTTCTGCGGAGTCACCTAGTGCAG”, the binding signal was 8330 fluorescence intensity (a.u.).

Regarding “TCAGATTCTGCACCCTTCTCGAACGAAACAATATCACCGCCGGAGTCACCTAGTGCAG”, the binding signal was 8140 fluorescence intensity (a.u.).
